Measurements published in publication doi:10.1101/2021.10.25.465562.
Where two headings read alike, the source gives them in different places. No constants are given. Whether binding was seen depends on the method and setting. In cells and extracts the contact can be indirect. Some binding calls cover weakened binding; strength is not graded here.

Sequences of proteins named here, by UniProt entry; tags and fusion partners are left off.
UniProt P70288: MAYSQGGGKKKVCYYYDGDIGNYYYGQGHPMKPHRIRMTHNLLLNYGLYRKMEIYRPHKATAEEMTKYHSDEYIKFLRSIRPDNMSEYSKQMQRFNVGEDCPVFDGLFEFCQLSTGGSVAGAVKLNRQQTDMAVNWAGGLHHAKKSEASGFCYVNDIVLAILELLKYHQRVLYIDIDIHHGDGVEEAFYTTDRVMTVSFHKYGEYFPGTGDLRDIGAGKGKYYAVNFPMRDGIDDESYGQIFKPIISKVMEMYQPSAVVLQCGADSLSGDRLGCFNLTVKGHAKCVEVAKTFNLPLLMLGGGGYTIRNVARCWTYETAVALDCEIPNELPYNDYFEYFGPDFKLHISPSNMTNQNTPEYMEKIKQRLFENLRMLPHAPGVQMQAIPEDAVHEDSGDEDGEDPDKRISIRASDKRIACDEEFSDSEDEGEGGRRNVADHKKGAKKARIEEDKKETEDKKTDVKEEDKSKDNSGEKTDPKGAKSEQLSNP
UniProt Q60867: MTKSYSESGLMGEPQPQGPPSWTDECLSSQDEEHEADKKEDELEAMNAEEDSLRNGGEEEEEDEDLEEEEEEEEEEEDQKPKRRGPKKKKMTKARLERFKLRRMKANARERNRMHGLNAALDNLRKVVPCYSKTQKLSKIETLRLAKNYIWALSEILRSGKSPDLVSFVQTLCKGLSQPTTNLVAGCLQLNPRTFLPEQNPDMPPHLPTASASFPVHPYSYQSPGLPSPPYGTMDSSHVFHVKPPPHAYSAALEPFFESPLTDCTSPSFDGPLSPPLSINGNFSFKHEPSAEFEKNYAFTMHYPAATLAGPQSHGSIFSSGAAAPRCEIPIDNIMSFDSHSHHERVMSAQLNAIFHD
UniProt Q60987: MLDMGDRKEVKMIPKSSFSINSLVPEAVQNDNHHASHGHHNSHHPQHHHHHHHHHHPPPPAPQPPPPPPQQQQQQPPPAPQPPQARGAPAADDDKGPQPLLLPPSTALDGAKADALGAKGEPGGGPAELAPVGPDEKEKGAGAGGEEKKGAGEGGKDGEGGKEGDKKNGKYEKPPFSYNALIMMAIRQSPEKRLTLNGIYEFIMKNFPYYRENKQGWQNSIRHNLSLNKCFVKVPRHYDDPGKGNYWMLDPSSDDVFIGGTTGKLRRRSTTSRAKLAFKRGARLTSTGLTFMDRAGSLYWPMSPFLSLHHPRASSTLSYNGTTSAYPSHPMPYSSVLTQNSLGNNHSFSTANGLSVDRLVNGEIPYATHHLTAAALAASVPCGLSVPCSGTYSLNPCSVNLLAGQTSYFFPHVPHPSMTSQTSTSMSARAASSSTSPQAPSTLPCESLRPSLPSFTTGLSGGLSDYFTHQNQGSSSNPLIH

How the values were obtained:
Test in all cases: co-IP
[1] = target: HDAC2 (mouse (endogenous in hippocampal tissue)) (UniProt P70288)
[2] = target: Neurogenic differentiation 1 (NEUROD1) (mouse (endogenous in hippocampus and primary hippocampal neurons)) (UniProt Q60867)
[3] = target: Neurogenic differentiation 1 (NEUROD1) (mouse (endogenous in hippocampus and primary hippocampal neurons)) (UniProt Q60867); remark: listed apart in the source

Measured: binding

Forkhead box G1 (FOXG1) (from UniProt Q60987 1-481)
binds: all assays above
